PubChem BioAssay AID1259254, NCATS, 2017

- Purpose: 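Genome-wide screen for genes that prevent DNA re-replication in cancer cells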 (primary screen)
- Cells: human HCT116 colorectal cancer cells
- Reagents: single siRNA against human genes
- Time to read-out: 3 days
- Measurement: 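Nuclei stained with Hoechst and imaged; cell-cycle phase assigned by DNA content; G2 share scaled per plate, non-targeting siRNA 0%, GMNN siRNA 100%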
- Scale: G2 robust z-score and G2 cells, % of GMNN control: higher = more G2 cells, more excess DNA replication
- Hit rule: 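Active siRNAs have a G2 robust z of 5 or more median absolute deviations over the median, which in these data means about 38% or higher of GMNN control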
The deposit covers about 59,000 reagents; shown is a part drawn at random. About 1,550 of all reagents (2.6%) count as active. 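G2 share is only a proxy for re-replication; each gene was hit by three separate siRNAs, and active genes were retested.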 A number with no mark means an inactive call. The numbers tell different reagents against one gene apart. Further read-outs or replicates are left out here. Not stated in the record: the amount of reagent.

no.	target gene	reagent	G2 robust z-score	G2 cells, % of GMNN control
1	TTI2	1	1.04	10.3
2	TTI2	2	-0.518	-0.677
3	TTI2	3	-0.951	-3.72
4	ZBTB37	1	0.0258	3.15
5	ZBTB37	2	1.69	14.9
6	ZBTB37	3	-0.482	-0.423
7	CRMA	1	-0.724	-2.13
8	CRMA	2	0.245	4.69
9	CRMA	3	0.0671	3.44
10	SCNN1A	1	4.96	37.9
11	SCNN1A	2	-0.946	-3.69
12	SCNN1A	3	0.952	9.66
13	MCTP1	1	0.417	5.9
14	MCTP1	2	0.783	8.47
15	MCTP1	3	0.365	5.53
16	TCN2	1	2.21	18.5
17	TCN2	2	-0.556	-0.942
18	TCN2	3	0.000348	2.97
19	CHN2	1	0.873	9.11
20	CHN2	2	2.11	17.8
21	CHN2	3	-0.522	-0.702
22	RECQL5	1	0.973	9.82
23	RECQL5	2	-0.664	-1.7
24	RECQL5	3	0.586	7.09
25	KIFC1	1	0.285	4.97
26	KIFC1	2	-1.12	-4.92
27	KIFC1	3	-1.18	-5.37
28	CRBN	1	-0.361	0.424
29	CRBN	2	-0.468	-0.329
30	CRBN	3	1.07	10.5
31	NDUFC1	1	-0.553	-0.924
32	NDUFC1	2	-0.593	-1.21
33	NDUFC1	3	0.258	4.78
34	PURB	1	-0.453	-0.218
35	PURB	2	0.104	3.7
36	PURB	3	0.22	4.52
37	CMTM8	1	3.92	30.5
38	CMTM8	2	-1.07	-4.57
39	CMTM8	3	0.568	6.96
40	CHRNE	1	-0.175	1.74
41	CHRNE	2	1.89	16.3
42	CHRNE	3	2.5	20.5
43	CHRDL1	1	-0.786	-2.56
44	CHRDL1	2	2.59	21.2
45	CHRDL1	3	1.25	11.8
46	CLRN1	1	0.791	8.53
47	CLRN1	2	0.0617	3.4
48	CLRN1	3	0.0896	3.6
49	SELENBP1	1	-0.95	-3.72
50	SELENBP1	2	-0.191	1.63
51	SELENBP1	3	-0.61	-1.32
52	KRT126P	1	-0.169	1.78
53	KRT126P	2	0.118	3.8
54	KRT126P	3	0.151	4.03
55	LIN54	1	11 (active)	80.4
56	LIN54	2	2.23	18.6
57	LIN54	3	-0.0925	2.32
58	ZBBX	1	1.16	11.1
59	ZBBX	2	1.54	13.8
60	ZBBX	3	2.36	19.6
61	SAMD10	1	-0.502	-0.566
62	SAMD10	2	-0.99	-4
63	SAMD10	3	5.75 (active)	43.5
64	EEPD1	1	3.21	25.6
65	EEPD1	2	-0.386	0.254
66	EEPD1	3	-1.06	-4.49
67	RALA	1	0.853	8.97
68	RALA	2	-0.032	2.74
69	RALA	3	1.48	13.4

No new results follow: an excerpt of the list.
no.	target gene	reagent	G2 robust z-score	G2 cells, % of GMNN control
25	KIFC1	1	0.285	4.97
26	KIFC1	2	-1.12	-4.92
27	KIFC1	3	-1.18	-5.37
28	CRBN	1	-0.361	0.424
29	CRBN	2	-0.468	-0.329
